Values from PubChem BioAssay AID686943 (Drosophila RNAi Screening Center, 2013)
Assay: 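Knockdowns that increase or decrease active ERK after insulin receptor stimulation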 (primary screen). System: Drosophila S2R+ haemocyte-like cells expressing YFP-tagged ERK (Rolled). Knock-down reagent: long dsRNA against Drosophila genes. Treatment: insulin stimulation versus unstimulated cells; dose and duration not given. Detection: 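Antibody staining for doubly phosphorylated ERK divided by ERK-YFP signal, as plate z-scores, in insulin-treated and untreated cells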. Reading the numbers: replicate 1, z-score of dpERK with insulin: higher = more active ERK per ERK-YFP after insulin.
In all, the deposit lists about 23,000 reagents; this is a random part of those with a known target gene and a result. 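Extra replicates exist only for a retested subset of genes; insulin dose and duration not given; both raised and lowered dpERK matter.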 A plus sign joins genes that one reagent is predicted to hit. Further read-outs or replicates are left out here. No sequences are given here. The record does not give: the amount of reagent, the time to read-out.

After knock-down of Idgf5 [DRSC06919] the results were replicate 1, z-score of dpERK with insulin 0.33.
Polr1H [DRSC14594] scored replicate 1, z-score of dpERK with insulin -0.15.
Against tctn + B9d2 [DRSC03160], the values are replicate 1, z-score of dpERK with insulin -0.34.
After knock-down of Spt5 [DRSC07556], the screen gave replicate 1, z-score of dpERK with insulin 0.92.
After knock-down of CG2691 [DRSC19866], the record shows replicate 1, z-score of dpERK with insulin -0.67.
For ImpE1 [DRSC11195], the entry reads replicate 1, z-score of dpERK with insulin -0.09.
ImpE1 [DRSC11196] gave replicate 1, z-score of dpERK with insulin 0.03.
Depletion of lncRNA:CR43242 [DRSC03827] gave: replicate 1, z-score of dpERK with insulin 0.27.
Against Gdap2 [DRSC06789], the values are replicate 1, z-score of dpERK with insulin 0.22.
With knock-down of Gdap2 [DRSC06790], the record shows replicate 1, z-score of dpERK with insulin -0.44.
CG1116 [DRSC12166] gave replicate 1, z-score of dpERK with insulin 0.92.
CG32756 [DRSC22505] scored replicate 1, z-score of dpERK with insulin -0.06.
Knock-down of CG14826 [DRSC10197] came out at: replicate 1, z-score of dpERK with insulin -0.06.
With knock-down of Prosalpha6 [DRSC03401], the screen gave replicate 1, z-score of dpERK with insulin -2.42.
Silencing of CG31793 [DRSC02605] came out at: replicate 1, z-score of dpERK with insulin 0.73.
Depletion of CG5421 [DRSC02858] resulted in: replicate 1, z-score of dpERK with insulin 0.
For ALiX [DRSC14564], the entry reads replicate 1, z-score of dpERK with insulin 0.44.
With knock-down of Fur2 [DRSC19817], the record shows replicate 1, z-score of dpERK with insulin 0.6.
Silencing of Syx13 [DRSC09836] came out at: replicate 1, z-score of dpERK with insulin -0.34.
With knock-down of Vps29 [DRSC00666] the results were replicate 1, z-score of dpERK with insulin 0.47.
After knock-down of Jhbp14 [DRSC01988], the record shows replicate 1, z-score of dpERK with insulin 0.31.
Silencing of CG18745 [DRSC15382] resulted in: replicate 1, z-score of dpERK with insulin 0.5.
Depletion of CG10561 [DRSC02068] came out at: replicate 1, z-score of dpERK with insulin 0.05.
Against tay [DRSC20142] the deposit lists replicate 1, z-score of dpERK with insulin -0.3.
Depletion of Rpp20 + CG33932 [DRSC19467] came out at: replicate 1, z-score of dpERK with insulin 1.2.
With knock-down of CG33003 [DRSC22419] the results were replicate 1, z-score of dpERK with insulin 0.17.
Against CG2975 [DRSC00556] the deposit lists replicate 1, z-score of dpERK with insulin -0.49.
For Ssrp [DRSC04658] the deposit lists replicate 1, z-score of dpERK with insulin -3.13.
Depletion of PIG-F [DRSC11069] resulted in: replicate 1, z-score of dpERK with insulin 1.1.
After knock-down of Cpr67Fa2 [DRSC10315] the results were replicate 1, z-score of dpERK with insulin 0.62.
For RhoGEF64C [DRSC08318], the entry reads replicate 1, z-score of dpERK with insulin -0.34.
With knock-down of RhoGEF64C [DRSC08319] the results were replicate 1, z-score of dpERK with insulin -1.7.
